Test results from patent US6156511A, “Peptide library and screening method” (Affymax Technologies N.V., priority 1998, dated 2000).

Columns and labels:
[1] = biological target: headpiece dimer B7 (non-mutant) (Escherichia coli) (UniProt P03023); assay: activity assay; conditions: panning Exp. 3; 0.64 and 1.24 under basal induction; protein in a lysate after overexpression; only the site is given
[2] = biological target: headpiece dimer A4.5 (mutant) Q18R (second headpiece) (Escherichia coli) (UniProt P03023); assay: binding assay; conditions: no specific binding to 32P plasmid fragments; protein in a lysate after overexpression; only the site is given
[3] = biological target: headpiece dimer B7 (non-mutant) (Escherichia coli) (UniProt P03023); assay: binding assay; conditions: no specific binding to 32P plasmid fragments; protein in a lysate after overexpression; only the site is given
[4] = biological target: Lac repressor (LacI)-peptide fusion, full length (Escherichia coli) (UniProt P03023); assay: binding assay; conditions: specific binding of lacI to 32P-labeled lacOs-containing fragments; protein in a lysate after overexpression; only the site is given

AATTGTGAGCGCTCACAATT (double strand)
activity on this sequence (fold enrichment) [1]: 10
binding result [2]: no binding
binding result [3]: no binding
binding result [4]: binds

For some of these results: Results from cells or extracts need not show a direct contact. For some of these results: Construct, isoform or probe ends are uncertain for at least one entry. For some of these results: A negative result means that nothing was seen under these conditions.
